Test results as given in patent US5639868.
For at least one entry, the source does not settle the construct or the ends of the probe.

Sequences of proteins named here, by UniProt entry; tags and fusion partners are left off. Residues count along the entry.
UniProt P09038, 135-288: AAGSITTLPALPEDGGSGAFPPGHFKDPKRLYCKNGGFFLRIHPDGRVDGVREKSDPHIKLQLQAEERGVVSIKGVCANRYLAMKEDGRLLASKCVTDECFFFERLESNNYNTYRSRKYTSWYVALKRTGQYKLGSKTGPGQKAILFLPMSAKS

Target: basic fibroblast growth factor (bFGF, FGF-2) (UniProt P09038)
Assay: inhibition of the protein
Conditions: 2'-NH2 at all C and U, purified recombinant protein, protein details: Bachem California, 18 kDa, 154 amino acids, dose not given here

| Sequence | functional effect of the aptamer (most effective inhibitor of 125I-bFGF binding to low- and high-affinity receptors, BHK cells, variant of 2'-NH2 21A) | functional effect of the aptamer (inhibits 125I-bFGF binding to receptors on BHK cells, also reduced bFGF-induced rat corneal vascular ingrowth (Table X: day 7 972 to 623, day 14 1528 to 900)) |
| --- | --- | --- |
| GGUGUGUGGAAGACAGCGGGUGGUUC [2'-NH2 21A-t] | active |  |
| GGGAGACAAGAAUAACGCUCAAGUAGACUAAUGUGUGGAAGACAGCGGGUGGUUCGACAGGAGGCUCACAACAGGC [2'-NH2 21A] |  | active |
